Test results from paper PMC12891473.
These are yes or no findings as the source states them, for the method shown. Binding seen in cells or lysates may run through a third protein. Here binding means that the protein was enriched with, or labelled near, the bait; the list need not be complete. A no says only that the protein was not detected with the bait.

Sequences of proteins named here, by UniProt entry; tags and fusion partners are left off. A change or cut given only in a name is not applied to a line headed by its entry.
UniProt A0A509AIT3: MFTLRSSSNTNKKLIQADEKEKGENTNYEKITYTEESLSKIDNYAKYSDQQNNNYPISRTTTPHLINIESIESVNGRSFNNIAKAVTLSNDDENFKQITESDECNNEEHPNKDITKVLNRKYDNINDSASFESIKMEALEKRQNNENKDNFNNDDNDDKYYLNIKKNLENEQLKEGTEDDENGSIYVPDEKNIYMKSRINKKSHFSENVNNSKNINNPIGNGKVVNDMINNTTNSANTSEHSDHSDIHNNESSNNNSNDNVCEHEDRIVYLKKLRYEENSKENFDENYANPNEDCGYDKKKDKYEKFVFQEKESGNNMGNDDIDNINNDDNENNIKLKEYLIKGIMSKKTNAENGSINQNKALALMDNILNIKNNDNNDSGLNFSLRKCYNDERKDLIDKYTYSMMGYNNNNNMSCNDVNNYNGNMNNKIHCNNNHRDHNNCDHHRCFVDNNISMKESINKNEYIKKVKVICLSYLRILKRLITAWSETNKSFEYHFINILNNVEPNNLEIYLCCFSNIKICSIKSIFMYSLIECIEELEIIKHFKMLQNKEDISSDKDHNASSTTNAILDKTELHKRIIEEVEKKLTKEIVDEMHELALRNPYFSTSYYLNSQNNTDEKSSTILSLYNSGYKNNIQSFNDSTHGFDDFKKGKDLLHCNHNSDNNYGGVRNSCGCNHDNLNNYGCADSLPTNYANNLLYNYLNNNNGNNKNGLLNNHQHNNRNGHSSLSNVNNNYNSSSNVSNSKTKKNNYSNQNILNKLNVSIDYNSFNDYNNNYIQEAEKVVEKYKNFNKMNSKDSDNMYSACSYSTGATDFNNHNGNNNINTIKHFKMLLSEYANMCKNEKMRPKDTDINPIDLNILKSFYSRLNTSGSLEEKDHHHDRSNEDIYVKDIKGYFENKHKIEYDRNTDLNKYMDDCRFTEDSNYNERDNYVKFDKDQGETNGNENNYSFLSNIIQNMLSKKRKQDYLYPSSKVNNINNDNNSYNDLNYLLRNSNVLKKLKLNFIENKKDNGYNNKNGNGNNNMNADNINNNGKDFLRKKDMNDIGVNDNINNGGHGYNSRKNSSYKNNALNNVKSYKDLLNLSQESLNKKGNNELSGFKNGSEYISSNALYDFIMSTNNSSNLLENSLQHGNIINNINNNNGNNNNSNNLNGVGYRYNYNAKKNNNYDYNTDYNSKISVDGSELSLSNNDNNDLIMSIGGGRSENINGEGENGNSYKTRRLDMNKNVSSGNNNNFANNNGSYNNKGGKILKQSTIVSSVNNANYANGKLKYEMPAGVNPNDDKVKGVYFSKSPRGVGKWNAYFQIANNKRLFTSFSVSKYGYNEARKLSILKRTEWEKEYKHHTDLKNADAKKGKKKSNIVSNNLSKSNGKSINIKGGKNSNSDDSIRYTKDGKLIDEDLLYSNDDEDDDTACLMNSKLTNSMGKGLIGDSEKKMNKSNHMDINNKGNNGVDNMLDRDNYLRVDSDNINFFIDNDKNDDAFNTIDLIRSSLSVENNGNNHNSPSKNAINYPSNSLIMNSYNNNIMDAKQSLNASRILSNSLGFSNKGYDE
UniProt A0A509AM22: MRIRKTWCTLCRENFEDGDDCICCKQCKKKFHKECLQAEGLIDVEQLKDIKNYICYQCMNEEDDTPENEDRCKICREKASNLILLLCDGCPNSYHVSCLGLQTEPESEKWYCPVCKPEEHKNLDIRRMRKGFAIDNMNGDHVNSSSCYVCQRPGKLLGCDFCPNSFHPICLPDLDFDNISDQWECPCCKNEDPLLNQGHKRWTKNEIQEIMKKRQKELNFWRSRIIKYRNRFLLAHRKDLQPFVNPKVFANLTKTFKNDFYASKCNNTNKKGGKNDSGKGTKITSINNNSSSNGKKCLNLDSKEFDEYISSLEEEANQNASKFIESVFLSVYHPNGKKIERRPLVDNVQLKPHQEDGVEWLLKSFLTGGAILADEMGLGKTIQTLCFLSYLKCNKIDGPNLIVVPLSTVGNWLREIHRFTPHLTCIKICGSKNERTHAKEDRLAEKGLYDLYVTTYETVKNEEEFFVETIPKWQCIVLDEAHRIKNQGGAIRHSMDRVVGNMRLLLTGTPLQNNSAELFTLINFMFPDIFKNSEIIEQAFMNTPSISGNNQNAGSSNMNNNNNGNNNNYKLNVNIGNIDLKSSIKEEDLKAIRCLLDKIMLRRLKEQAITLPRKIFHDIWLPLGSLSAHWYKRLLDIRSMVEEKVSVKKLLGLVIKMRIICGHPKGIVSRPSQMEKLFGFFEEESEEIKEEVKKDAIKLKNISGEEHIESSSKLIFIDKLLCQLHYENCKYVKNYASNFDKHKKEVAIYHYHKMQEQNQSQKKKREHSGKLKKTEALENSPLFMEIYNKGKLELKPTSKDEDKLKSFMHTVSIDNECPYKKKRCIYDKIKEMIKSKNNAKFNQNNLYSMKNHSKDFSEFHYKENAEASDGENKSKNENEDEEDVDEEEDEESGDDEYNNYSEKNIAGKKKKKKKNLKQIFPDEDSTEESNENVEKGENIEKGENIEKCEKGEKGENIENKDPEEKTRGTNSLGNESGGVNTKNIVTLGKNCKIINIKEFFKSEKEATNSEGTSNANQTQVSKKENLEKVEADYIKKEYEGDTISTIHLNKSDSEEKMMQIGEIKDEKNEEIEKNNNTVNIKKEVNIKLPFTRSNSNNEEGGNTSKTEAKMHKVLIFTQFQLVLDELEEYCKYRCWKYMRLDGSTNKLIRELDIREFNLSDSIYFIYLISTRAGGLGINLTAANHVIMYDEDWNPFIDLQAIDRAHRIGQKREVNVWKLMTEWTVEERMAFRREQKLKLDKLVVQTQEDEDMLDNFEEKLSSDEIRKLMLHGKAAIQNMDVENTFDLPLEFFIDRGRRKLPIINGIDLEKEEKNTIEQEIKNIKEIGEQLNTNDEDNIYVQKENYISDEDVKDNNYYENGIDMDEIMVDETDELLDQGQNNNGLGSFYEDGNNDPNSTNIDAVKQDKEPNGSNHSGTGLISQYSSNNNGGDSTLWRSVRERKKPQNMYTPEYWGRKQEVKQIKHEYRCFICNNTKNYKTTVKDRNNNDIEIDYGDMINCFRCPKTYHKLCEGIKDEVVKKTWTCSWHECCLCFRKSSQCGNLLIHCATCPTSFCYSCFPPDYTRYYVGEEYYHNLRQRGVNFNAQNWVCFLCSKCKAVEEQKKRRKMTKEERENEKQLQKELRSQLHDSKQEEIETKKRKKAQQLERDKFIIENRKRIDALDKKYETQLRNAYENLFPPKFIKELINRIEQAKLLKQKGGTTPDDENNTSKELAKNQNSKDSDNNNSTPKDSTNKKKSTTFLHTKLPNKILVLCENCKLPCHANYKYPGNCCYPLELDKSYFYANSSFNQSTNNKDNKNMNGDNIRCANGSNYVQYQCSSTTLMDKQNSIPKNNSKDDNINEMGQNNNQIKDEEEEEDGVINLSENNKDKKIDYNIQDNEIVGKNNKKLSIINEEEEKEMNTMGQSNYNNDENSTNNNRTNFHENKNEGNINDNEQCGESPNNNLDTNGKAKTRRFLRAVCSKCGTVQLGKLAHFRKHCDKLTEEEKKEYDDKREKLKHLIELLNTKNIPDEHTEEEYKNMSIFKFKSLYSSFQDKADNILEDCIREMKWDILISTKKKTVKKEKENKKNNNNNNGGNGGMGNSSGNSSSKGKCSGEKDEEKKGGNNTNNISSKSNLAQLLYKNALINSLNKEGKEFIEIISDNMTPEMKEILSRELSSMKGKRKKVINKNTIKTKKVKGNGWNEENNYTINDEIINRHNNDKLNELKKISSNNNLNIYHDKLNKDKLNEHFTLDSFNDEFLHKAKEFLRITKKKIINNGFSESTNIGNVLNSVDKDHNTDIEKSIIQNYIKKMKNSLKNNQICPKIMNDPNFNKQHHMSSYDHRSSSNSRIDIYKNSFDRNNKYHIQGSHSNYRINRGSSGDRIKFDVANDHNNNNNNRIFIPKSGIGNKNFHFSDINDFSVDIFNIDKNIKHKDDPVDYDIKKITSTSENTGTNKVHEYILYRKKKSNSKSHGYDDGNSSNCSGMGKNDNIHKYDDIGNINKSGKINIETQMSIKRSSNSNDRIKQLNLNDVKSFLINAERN
UniProt A0A509AMD3: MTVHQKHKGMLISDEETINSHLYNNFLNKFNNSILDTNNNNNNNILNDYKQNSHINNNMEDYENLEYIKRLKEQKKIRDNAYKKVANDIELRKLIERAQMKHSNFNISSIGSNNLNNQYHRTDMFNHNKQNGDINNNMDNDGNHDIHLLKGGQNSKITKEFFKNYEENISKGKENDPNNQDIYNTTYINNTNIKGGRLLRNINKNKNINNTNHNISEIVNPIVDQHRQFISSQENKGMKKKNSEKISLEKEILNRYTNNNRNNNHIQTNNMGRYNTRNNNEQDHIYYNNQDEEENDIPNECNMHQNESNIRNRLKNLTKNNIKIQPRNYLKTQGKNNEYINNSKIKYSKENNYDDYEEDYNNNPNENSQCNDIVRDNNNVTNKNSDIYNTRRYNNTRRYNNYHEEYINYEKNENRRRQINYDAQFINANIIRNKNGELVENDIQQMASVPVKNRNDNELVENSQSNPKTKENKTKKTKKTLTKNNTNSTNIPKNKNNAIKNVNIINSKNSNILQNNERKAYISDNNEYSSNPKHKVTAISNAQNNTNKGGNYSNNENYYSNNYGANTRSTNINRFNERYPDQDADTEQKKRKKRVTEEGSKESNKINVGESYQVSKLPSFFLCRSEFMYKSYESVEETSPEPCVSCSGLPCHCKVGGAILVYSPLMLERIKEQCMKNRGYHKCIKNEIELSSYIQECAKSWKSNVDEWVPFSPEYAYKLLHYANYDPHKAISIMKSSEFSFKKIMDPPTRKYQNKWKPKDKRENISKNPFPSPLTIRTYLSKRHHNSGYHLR

Biological target: GFP-fused PbAP2-TR (PbAP2-TR::GFP) (P. berghei)
Assay: affinity purification with mass spectrometry; RIME: ChIP with anti-GFP polyclonal antibodies on Protein A magnetic beads from 1% formalin-fixed, sonicated PbAP2-TR::GFP^pbap2-g(-) parasites at 12 hpi, WT parasites as control; low-salt and high-salt washes; on-bead trypsin digestion, LC-MS/MS; four biologically independent experiments

| binding | Substance |
| --- | --- |
| no binding | PbAP2-P (from UniProt A0A509AIT3) |
| binds | ISWI (from UniProt A0A509AM22) |
| binds | EELM2 (from UniProt A0A509AMD3) |
| no binding | PBANKA_0521700 (from UniProt A0A509AF70 1-2775) |
